From paper PMC5996148 come the findings set out here.

Values joined by “and” are separate entries in the source; they are usually repeats but may differ in a detail not shown here. Identical values can stand only once. Some of the results follow. For some of these results: The exact form of the protein is not confirmed.

Among the test systems are DUS3L (human); DUSP22 (human); DUSP6 (human); DUT (human); DYDC1 (human); DYNC1LI2 (human); DYNC2LI1 (human); DYNLL1 (human).
Common to all, as to experiment: protein microarray (ProtoArray v5.0), streptavidin-Alexa Fluor 647
Details in all cases: 3'-biotin; 20 mM Tris (pH 7.5), 5 mM MgCl2, 100 mM KCl, 0.1% Tween-20, A/T-rich and random oligonucleotide blockers; temperature not stated; high values mean tight binding

The target of the next test is T1, DUSP21 (UniProt Q9H596).
T1 sequence: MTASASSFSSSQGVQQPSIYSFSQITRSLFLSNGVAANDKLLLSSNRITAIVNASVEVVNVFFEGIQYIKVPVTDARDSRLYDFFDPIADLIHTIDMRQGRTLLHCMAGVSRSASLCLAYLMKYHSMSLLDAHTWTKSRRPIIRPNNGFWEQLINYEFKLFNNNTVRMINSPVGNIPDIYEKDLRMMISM

Test [1] relates to Dehydrogenase/reductase SDR family member 1 (human).

Take “GGGAGGCTGAGGCAGG [G4-1 biotinylated (PQS2)]”: the binding signal is -0.308 z-score with DUS3L (human); -0.303 z-score with DUSP21; -0.336 z-score in the test on DUSP22 (human); -0.361 z-score with DUSP6 (human); -0.247 z-score and -0.337 z-score in the test on DUT (human); -0.26 z-score in the test on DYDC1 (human). Moreover, the binding signal in the test with DYNC1LI2 (human) was -0.36 z-score; with DYNC2LI1 (human), -0.295 z-score; in the test on DYNLL1 (human) it was -0.332 z-score; in test [1], -0.36 z-score and -0.334 z-score.
